# Laboratory results as given in the supplement of paper PMC8728848.
# This is one part of the list.
# B1: SJCP1531 (Schistosoma japonicum) (protein)
# chain: MFKVRIINLVNISTVLLLINLLQTKSQVNVEQLVTVLEVNIKAQLKNKTTEVLVEWNPLYQDNSMPEYRKLLDETCKLFLPFVNEKVPPSTYGGECTNANFSEAPQDGSYSRVNAELRLIYKYSDNPQIQTDRLQDDLNDREEFITSESSFVAYNPKFTVKIEKLFIPISESQTTPPPTTAKNDASKKDDDDNGGEDSKAPIDTFAMTASGNKGKKDDDDNGGEDSKAPIDTFAMTASGSKDERSTWTIIGIITLVVLIFVVIGGGITVFVKRC
# How the values were obtained:
# Assay in all cases: glycan array binding signal (z-score within array); higher = stronger binding
# Settings in all cases: glycan notation: IUPAC condensed, linker removed
# [1] = biological target: Gal(a1-3)[Gal(a1-4)]Gal(b1-4)GlcNAc
# In short: (§1)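 Arrays were curated from the Consortium for Functional Glycomics database, 3228 in total, and kept only where the protein sequence was available. Binding is expressed as a within-array Z-score. This score was averaged across arrays of the same protein sequence at different concentrations or buffers and across linkers, and negative values can be read as non-binding.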
# [2] = biological target: Gal(a1-4)Gal(b1-3)GlcNAc(b1-2)Man(a1-3)[Gal(a1-4)Gal(b1-3)GlcNAc(b1-2)Man(a1-6)]Man(b1-4)GlcNAc(b1-4)GlcNAc
# In short: as §1
# Gal(a1-4)Gal(b1-4)Glc = biological target: Gal(a1-4)Gal(b1-4)Glc
# In short: as §1
# Gal(a1-4)Gal(b1-4)GlcNAc = biological target: Gal(a1-4)Gal(b1-4)GlcNAc
# In short: as §1
# [3] = biological target: Gal(a1-4)Gal(b1-4)GlcNAc(b1-2)Man(a1-3)[Gal(a1-4)Gal(b1-4)GlcNAc(b1-2)Man(a1-6)]Man(b1-4)GlcNAc(b1-4)GlcNAc
# In short: as §1
# [4] = biological target: Gal(a1-4)Gal(b1-4)GlcNAc(b1-3)Gal(b1-4)Glc
# In short: as §1
# Gal(a1-4)GlcNAc = biological target: Gal(a1-4)GlcNAc
# In short: as §1
# Gal(a1-6)Glc = biological target: Gal(a1-6)Glc
# In short: as §1
# Gal(b1-2)Gal = biological target: Gal(b1-2)Gal
# In short: as §1
# Gal(b1-3)Gal = biological target: Gal(b1-3)Gal
# In short: as §1
# Gal(b1-3)Gal(b1-4)GlcNAc = biological target: Gal(b1-3)Gal(b1-4)GlcNAc
# In short: as §1
# Gal(b1-3)GalNAc = biological target: Gal(b1-3)GalNAc
# In short: as §1
# [5] = biological target: Gal(b1-3)GalNAc(a1-3)[Fuc(a1-2)]Gal(b1-4)Glc
# In short: as §1
# [6] = biological target: Gal(b1-3)GalNAc(a1-3)[Fuc(a1-2)]Gal(b1-4)GlcNAc
# In short: as §1
# Gal(b1-3)GalNAc(b1-3)Gal = biological target: Gal(b1-3)GalNAc(b1-3)Gal
# In short: as §1
# [7] = biological target: Gal(b1-3)GalNAc(b1-3)Gal(a1-4)Gal(b1-4)Glc
# In short: as §1
# [8] = biological target: Gal(b1-3)GalNAc(b1-4)Gal(b1-4)Glc
# In short: as §1
# [9] = biological target: Gal(b1-3)GalNAc(b1-4)[Neu5Ac(a2-3)]Gal(b1-4)Glc
# In short: as §1
# Gal(b1-3)GlcNAc = biological target: Gal(b1-3)GlcNAc
# In short: as §1
# [10] = biological target: Gal(b1-3)GlcNAc(a1-3)Gal(b1-4)GlcNAc
# In short: as §1
# [11] = biological target: Gal(b1-3)GlcNAc(a1-6)Gal(b1-4)GlcNAc
# In short: as §1
# Gal(b1-3)GlcNAc(b1-2)Man = biological target: Gal(b1-3)GlcNAc(b1-2)Man
# In short: as §1
# [12] = biological target: Gal(b1-3)GlcNAc(b1-2)Man(a1-3)[Gal(b1-3)GlcNAc(b1-2)Man(a1-6)]Man(b1-4)GlcNAc(b1-4)GlcNAc
# In short: as §1
# [13] = biological target: Gal(b1-3)GlcNAc(b1-2)Man(a1-3)[Gal(b1-3)GlcNAc(b1-2)Man(a1-6)]Man(b1-4)GlcNAc(b1-4)[Fuc(a1-6)]GlcNAc
# In short: as §1
# [14] = biological target: Gal(b1-3)GlcNAc(b1-2)Man(a1-3)[GlcNAc(b1-4)][Gal(b1-3)GlcNAc(b1-2)Man(a1-6)]Man(b1-4)GlcNAc(b1-4)GlcNAc
# In short: as §1
# [15] = biological target: Gal(b1-3)GlcNAc(b1-2)[Gal(b1-3)GlcNAc(b1-6)]Man(a1-6)[Gal(b1-3)GlcNAc(b1-2)Man(a1-3)]Man(b1-4)GlcNAc(b1-4)GlcNAc
# In short: as §1
# [16] = biological target: Gal(b1-3)GlcNAc(b1-3)Gal(b1-3)GlcNAc
# In short: as §1
# [17] = biological target: Gal(b1-3)GlcNAc(b1-3)Gal(b1-4)Glc
# In short: as §1
# [18] = biological target: Gal(b1-3)GlcNAc(b1-3)Gal(b1-4)GlcNAc
# In short: as §1
# [19] = biological target: Gal(b1-3)GlcNAc(b1-3)Gal(b1-4)GlcNAc(b1-2)Man(a1-3)[Gal(b1-3)GlcNAc(b1-3)Gal(b1-4)GlcNAc(b1-2)Man(a1-6)]Man(b1-4)GlcNAc(b1-4)GlcNAc
# In short: as §1
# [20] = biological target: Gal(b1-3)GlcNAc(b1-3)Gal(b1-4)GlcNAc(b1-2)[Gal(b1-3)GlcNAc(b1-3)Gal(b1-4)GlcNAc(b1-6)]Man(a1-6)[Gal(b1-3)GlcNAc(b1-3)Gal(b1-4)GlcNAc(b1-2)Man(a1-3)]Man(b1-4)GlcNAc(b1-4)[Fuc(a1-6)]GlcNAc
# In short: as §1
# [21] = biological target: Gal(b1-3)GlcNAc(b1-3)Gal(b1-4)GlcNAc(b1-3)Gal(b1-4)GlcNAc(b1-2)[Gal(b1-3)GlcNAc(b1-3)Gal(b1-4)GlcNAc(b1-3)Gal(b1-4)GlcNAc(b1-6)]Man(a1-6)[Gal(b1-3)GlcNAc(b1-3)Gal(b1-4)GlcNAc(b1-3)Gal(b1-4)GlcNAc(b1-2)Man(a1-3)]Man(b1-4)GlcNAc(b1-4)[Fuc(a1-6)]GlcNAc
# In short: as §1
# [22] = biological target: Gal(b1-3)GlcNAc(b1-3)Gal(b1-4)GlcNAc(b1-6)[Gal(b1-3)GlcNAc(b1-3)]Gal(b1-4)Glc
# In short: as §1
# [23] = biological target: Gal(b1-3)GlcNAc(b1-3)Gal(b1-4)[Fuc(a1-3)]GlcNAc
# In short: as §1
# [24] = biological target: Gal(b1-3)GlcNAc(b1-3)Gal(b1-4)[Fuc(a1-3)]GlcNAc(b1-6)[Gal(b1-3)GlcNAc(b1-3)]Gal(b1-4)Glc
# In short: as §1
# [25] = biological target: Gal(b1-3)GlcNAc(b1-3)GalNAc
# In short: as §1
# [26] = biological target: Gal(b1-3)GlcNAc(b1-6)Gal(b1-4)GlcNAc
# In short: as §1
# [27] = biological target: Gal(b1-3)GlcNAc(b1-6)GalNAc
# In short: as §1
binder,measurement,setting,value
B1,glycan array binding signal (z-score),[1],0.766
same,glycan array binding signal (z-score),[2],0.323
same,glycan array binding signal (z-score),Gal(a1-4)Gal(b1-4)Glc,-0.592
same,glycan array binding signal (z-score),Gal(a1-4)Gal(b1-4)GlcNAc,1.87
same,glycan array binding signal (z-score),[3],2.24
same,glycan array binding signal (z-score),[4],1.03
same,glycan array binding signal (z-score),Gal(a1-4)GlcNAc,-0.402
same,glycan array binding signal (z-score),Gal(a1-6)Glc,-1.31
same,glycan array binding signal (z-score),Gal(b1-2)Gal,-0.368
same,glycan array binding signal (z-score),Gal(b1-3)Gal,3.29
same,glycan array binding signal (z-score),Gal(b1-3)Gal(b1-4)GlcNAc,0.064
same,glycan array binding signal (z-score),Gal(b1-3)GalNAc,0.084
same,glycan array binding signal (z-score),[5],0.216
same,glycan array binding signal (z-score),[6],0.345
same,glycan array binding signal (z-score),Gal(b1-3)GalNAc(b1-3)Gal,-0.062
same,glycan array binding signal (z-score),[7],-0.436
same,glycan array binding signal (z-score),[8],-0.577
same,glycan array binding signal (z-score),[9],0.895
same,glycan array binding signal (z-score),Gal(b1-3)GlcNAc,0.101
same,glycan array binding signal (z-score),[10],-0.336
same,glycan array binding signal (z-score),[11],-0.922
same,glycan array binding signal (z-score),Gal(b1-3)GlcNAc(b1-2)Man,1.37
same,glycan array binding signal (z-score),[12],-0.297
same,glycan array binding signal (z-score),[13],1.03
same,glycan array binding signal (z-score),[14],1.55
same,glycan array binding signal (z-score),[15],2.11
same,glycan array binding signal (z-score),[16],-0.382
same,glycan array binding signal (z-score),[17],-1.1
same,glycan array binding signal (z-score),[18],-0.806
same,glycan array binding signal (z-score),[19],-0.691
same,glycan array binding signal (z-score),[20],1.35
same,glycan array binding signal (z-score),[21],0.637
same,glycan array binding signal (z-score),[22],1.37
same,glycan array binding signal (z-score),[23],0.726
same,glycan array binding signal (z-score),[24],-1.15
same,glycan array binding signal (z-score),[25],-1.3
same,glycan array binding signal (z-score),[26],-0.48
same,glycan array binding signal (z-score),[27],-0.943

# Quoted from above for reference:
binder,measurement,setting,value
B1,glycan array binding signal (z-score),Gal(a1-6)Glc,-1.31
same,glycan array binding signal (z-score),Gal(b1-2)Gal,-0.368
same,glycan array binding signal (z-score),Gal(b1-3)Gal,3.29
same,glycan array binding signal (z-score),Gal(b1-3)Gal(b1-4)GlcNAc,0.064
same,glycan array binding signal (z-score),Gal(b1-3)GalNAc,0.084
same,glycan array binding signal (z-score),[5],0.216
same,glycan array binding signal (z-score),[6],0.345
same,glycan array binding signal (z-score),Gal(b1-3)GalNAc(b1-3)Gal,-0.062
